{"source": "PubChem BioAssay AID504784, Drosophila RNAi Screening Center | 2011", "test": "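Search for regulators of lipid droplet storage in oleate-fed fly cells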 (primary screen)", "cell system": "Drosophila Kc167 embryonic cells", "knock-down reagent": "long dsRNA against Drosophila genes, about 250 ng dsRNA per well", "duration": "4 days", "conditions": "cells fed 400 µM oleic acid bound to BSA", "detection": "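Microscope images give a droplet-to-nucleus area ratio, taken as log and converted to a screen-wide B-score; higher values mean greater lipid storage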", "reading the numbers": "droplet/nuclear area B-score: higher = more stored lipid (overstorage)", "note": "The deposit covers about 17,000 reagents; this is an unselected part of those with a known target gene and a result. 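Each column is one replicate's B-score; the combined score over replicates was not deposited, so single values may mislead.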 Further read-outs or replicates are left out here."}
{"gene": "veil", "dsRNA": "DRSC06892", "droplet/nuclear area B-score, replicate 1": -0.965}
{"gene": "CCHa1-R", "dsRNA": "DRSC06456", "droplet/nuclear area B-score, replicate 1": 0.2}
{"gene": "CCHa1-R", "dsRNA": "DRSC06715", "droplet/nuclear area B-score, replicate 1": -0.0906}
{"gene": "ATPsynbeta", "dsRNA": "DRSC17194", "droplet/nuclear area B-score, replicate 1": 0.783}
{"gene": "CG6974", "dsRNA": "DRSC16160", "droplet/nuclear area B-score, replicate 1": -0.0211}
{"gene": "Mst57Da", "dsRNA": "DRSC16744", "droplet/nuclear area B-score, replicate 1": 6.07}
{"gene": "CG14297", "dsRNA": "DRSC14776", "droplet/nuclear area B-score, replicate 1": -1.44}
{"gene": "ema", "dsRNA": "DRSC14536", "droplet/nuclear area B-score, replicate 1": -1.05}
{"gene": "dpr18", "dsRNA": "DRSC19606", "droplet/nuclear area B-score, replicate 1": -0.0655}
{"gene": "ref(2)P", "dsRNA": "DRSC03601", "droplet/nuclear area B-score, replicate 1": -0.254}
{"gene": "Pfdn1", "dsRNA": "DRSC02325", "droplet/nuclear area B-score, replicate 1": -0.275}
{"gene": "CG17760", "dsRNA": "DRSC06694", "droplet/nuclear area B-score, replicate 1": -0.219}
{"gene": "CG10764", "dsRNA": "DRSC06000", "droplet/nuclear area B-score, replicate 1": -1.59}
{"gene": "CG12391", "dsRNA": "DRSC06147", "droplet/nuclear area B-score, replicate 1": -0.464}
{"gene": "CG6149", "dsRNA": "DRSC10593", "droplet/nuclear area B-score, replicate 1": -0.559}
{"gene": "Nmdar1", "dsRNA": "DRSC12071", "droplet/nuclear area B-score, replicate 1": 0.948}
{"gene": "Nmdar1", "dsRNA": "DRSC12356", "droplet/nuclear area B-score, replicate 1": 0.0174}
{"gene": "CG31848", "dsRNA": "DRSC01309", "droplet/nuclear area B-score, replicate 1": 2.21}
{"gene": "CG1632", "dsRNA": "DRSC17558", "droplet/nuclear area B-score, replicate 1": 0.841}
{"gene": "CG1632", "dsRNA": "DRSC18110", "droplet/nuclear area B-score, replicate 1": -0.0657}
{"gene": "heca", "dsRNA": "DRSC16964", "droplet/nuclear area B-score, replicate 1": 2.71}
{"gene": "heca", "dsRNA": "DRSC22990", "droplet/nuclear area B-score, replicate 1": 1.17}
{"gene": "Leash", "dsRNA": "DRSC15617", "droplet/nuclear area B-score, replicate 1": -1.01}
{"gene": "CG11069", "dsRNA": "DRSC14289", "droplet/nuclear area B-score, replicate 1": -0.889}
{"gene": "syd", "dsRNA": "DRSC10963", "droplet/nuclear area B-score, replicate 1": -1.58}
{"gene": "CG31106", "dsRNA": "DRSC14655", "droplet/nuclear area B-score, replicate 1": -1.07}
{"gene": "CG31156", "dsRNA": "DRSC15753", "droplet/nuclear area B-score, replicate 1": -0.5}
{"gene": "CG31156", "dsRNA": "DRSC15755", "droplet/nuclear area B-score, replicate 1": -0.263}
{"gene": "Ndc1", "dsRNA": "DRSC15895", "droplet/nuclear area B-score, replicate 1": -0.49}
{"gene": "CG6071", "dsRNA": "DRSC10579", "droplet/nuclear area B-score, replicate 1": -0.254}
{"gene": "CG9760", "dsRNA": "DRSC11101", "droplet/nuclear area B-score, replicate 1": -0.0199}
{"gene": "CG31266", "dsRNA": "DRSC15747", "droplet/nuclear area B-score, replicate 1": 0.0161}
{"gene": "CG13131", "dsRNA": "DRSC02227", "droplet/nuclear area B-score, replicate 1": 0.0607}
{"gene": "CG13131", "dsRNA": "DRSC23253", "droplet/nuclear area B-score, replicate 1": -0.53}
{"gene": "mRRF1", "dsRNA": "DRSC10421", "droplet/nuclear area B-score, replicate 1": -1.08}
{"gene": "CG13073", "dsRNA": "DRSC09956", "droplet/nuclear area B-score, replicate 1": 0.491}
{"gene": "CG42699", "dsRNA": "DRSC18076", "droplet/nuclear area B-score, replicate 1": -0.645}
{"gene": "CG42699", "dsRNA": "DRSC18341", "droplet/nuclear area B-score, replicate 1": -1.09}
{"gene": "Arpc1", "dsRNA": "DRSC03438", "droplet/nuclear area B-score, replicate 1": -1.44}
{"gene": "Cyp6a8", "dsRNA": "DRSC07384", "droplet/nuclear area B-score, replicate 1": -0.652}

Single entries from the list.
For “droplet/nuclear area B-score, replicate 1”, mRRF1 [DRSC10421] has -1.08
Value for CG42699 [DRSC18341] under “droplet/nuclear area B-score, replicate 1”: -1.09
For “droplet/nuclear area B-score, replicate 1”, ema [DRSC14536] is entered as -1.05
For “droplet/nuclear area B-score, replicate 1”, CG13073 [DRSC09956] shows 0.491
Value for CG13131 [DRSC23253] in “droplet/nuclear area B-score, replicate 1”: -0.53
CG6149 [DRSC10593], droplet/nuclear area B-score, replicate 1 → -0.559
